Data published in US10772928B2, “Modulation and detection of a neuronal alternative splicing regulatory network for treatment and diagnosis of neurological disorders” (The Governing Council of the University of Toronto, priority 2014, dated 2020).

Tested on: microexons
Assay: Neural-regulated microexons by RNA-Seq pipeline across mouse cell and tissue types

Substance	Regulation in Brain (mouse neural-regulated microexons, coordinates mm9)	Regulation in Brain (mouse neural-regulated microexon (mm9), NEURAL-UP or NEURAL-DOWN)
Dtnb	NEURAL-UP	
Sbf1		NEURAL-UP
